Results are given in words; binding and its absence hold for the method and conditions named. Binding seen in cells or lysates may run through a third protein. Here binding means that the protein was enriched with, or labelled near, the bait; the list need not be complete.
Target: BAF155 (UniProt Q92922)
Assay: affinity purification with mass spectrometry; potential protein interactors of BAF155 identified using mass spectroscopy; sample not told in the main text

By UniProt entry, the sequences of proteins in these tests, tags left out.
UniProt Q92922: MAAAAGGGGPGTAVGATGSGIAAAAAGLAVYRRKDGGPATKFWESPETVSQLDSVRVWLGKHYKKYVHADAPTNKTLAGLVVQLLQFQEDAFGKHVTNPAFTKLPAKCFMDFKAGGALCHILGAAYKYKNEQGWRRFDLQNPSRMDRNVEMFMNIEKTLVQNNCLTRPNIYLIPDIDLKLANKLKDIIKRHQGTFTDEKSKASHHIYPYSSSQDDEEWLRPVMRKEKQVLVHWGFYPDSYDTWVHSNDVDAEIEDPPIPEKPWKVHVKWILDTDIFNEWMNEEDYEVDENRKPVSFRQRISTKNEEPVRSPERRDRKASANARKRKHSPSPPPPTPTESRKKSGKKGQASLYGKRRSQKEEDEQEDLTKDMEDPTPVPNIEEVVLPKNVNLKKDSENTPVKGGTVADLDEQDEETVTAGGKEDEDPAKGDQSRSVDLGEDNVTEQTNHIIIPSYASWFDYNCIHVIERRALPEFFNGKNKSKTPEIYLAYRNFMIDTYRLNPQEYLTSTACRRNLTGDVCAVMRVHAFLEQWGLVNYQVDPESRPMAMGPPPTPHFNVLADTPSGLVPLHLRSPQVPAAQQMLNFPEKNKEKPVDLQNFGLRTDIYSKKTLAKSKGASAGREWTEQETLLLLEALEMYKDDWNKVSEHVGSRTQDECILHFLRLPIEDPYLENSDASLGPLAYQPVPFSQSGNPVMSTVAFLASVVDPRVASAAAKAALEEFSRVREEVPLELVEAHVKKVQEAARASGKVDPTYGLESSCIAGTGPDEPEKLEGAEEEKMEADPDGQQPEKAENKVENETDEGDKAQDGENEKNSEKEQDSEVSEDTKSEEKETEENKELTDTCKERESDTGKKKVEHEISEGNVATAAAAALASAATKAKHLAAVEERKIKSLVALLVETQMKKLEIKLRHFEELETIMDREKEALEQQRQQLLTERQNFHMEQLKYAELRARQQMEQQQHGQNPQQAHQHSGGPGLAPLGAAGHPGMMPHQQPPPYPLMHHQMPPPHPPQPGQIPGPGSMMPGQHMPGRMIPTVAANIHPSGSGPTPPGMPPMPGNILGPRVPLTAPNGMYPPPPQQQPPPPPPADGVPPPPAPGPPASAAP
UniProt P09874: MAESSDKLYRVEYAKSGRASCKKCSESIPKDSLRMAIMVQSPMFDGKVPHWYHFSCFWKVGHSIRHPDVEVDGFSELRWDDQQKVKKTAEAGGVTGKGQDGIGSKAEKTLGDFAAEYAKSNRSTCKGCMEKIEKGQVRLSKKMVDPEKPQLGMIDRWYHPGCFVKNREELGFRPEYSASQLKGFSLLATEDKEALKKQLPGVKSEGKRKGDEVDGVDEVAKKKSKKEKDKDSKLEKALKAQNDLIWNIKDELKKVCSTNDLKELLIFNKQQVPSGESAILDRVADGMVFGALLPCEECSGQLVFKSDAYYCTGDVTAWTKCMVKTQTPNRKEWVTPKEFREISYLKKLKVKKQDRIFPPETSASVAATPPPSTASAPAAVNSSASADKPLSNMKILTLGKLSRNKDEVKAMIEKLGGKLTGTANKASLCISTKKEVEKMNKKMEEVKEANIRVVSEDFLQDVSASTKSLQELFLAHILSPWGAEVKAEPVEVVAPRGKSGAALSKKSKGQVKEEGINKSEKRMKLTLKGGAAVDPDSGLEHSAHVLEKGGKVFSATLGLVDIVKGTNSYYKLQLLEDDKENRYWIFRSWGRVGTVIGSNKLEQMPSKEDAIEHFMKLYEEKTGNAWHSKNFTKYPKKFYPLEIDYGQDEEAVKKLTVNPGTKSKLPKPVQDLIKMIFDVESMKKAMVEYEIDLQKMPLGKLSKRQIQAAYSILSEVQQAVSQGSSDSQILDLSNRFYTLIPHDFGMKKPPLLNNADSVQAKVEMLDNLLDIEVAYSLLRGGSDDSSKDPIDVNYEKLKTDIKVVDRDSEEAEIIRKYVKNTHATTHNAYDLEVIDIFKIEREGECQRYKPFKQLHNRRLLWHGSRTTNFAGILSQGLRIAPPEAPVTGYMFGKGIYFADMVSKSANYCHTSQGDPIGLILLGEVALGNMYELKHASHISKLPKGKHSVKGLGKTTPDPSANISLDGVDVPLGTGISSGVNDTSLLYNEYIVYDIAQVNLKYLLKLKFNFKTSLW

binding: binds
Substance: Poly(ADP-ribose) polymerase 1 (PARP1) (from UniProt P09874 1-1014)

Reference: publication PMC10167234
